PubChem BioAssay AID1259405 | NCATS – 2018
This is one part, drawn at random, of about 50,000 deposited reagents. About 4,000 of all reagents (8%) count as active. 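Mouse siRNA library applied to hamster cells; one well for each siRNA.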 The numbers tell different reagents against one gene apart. Reagent sequences are not shown.

Screen: 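Silenced genes that increase secreted GFP made by CHO cells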 (primary screen)
Cell system: Chinese hamster CHO-K1 ovary cells with stable secreted eGFP expression
Reagents: single siRNA against mouse genes, 0.8 pmol siRNA per well (2 µl of 400 nM stock)
Timing: 3 days
Measured: 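Per-well intracellular GFP measured by laser scanning cytometry, plus viability from ATP luminescence, each relative to plate median of non-targeting control wells, in %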
Direction: GFP, % of control: higher = more GFP per well, higher productivity; viability (ATP), % of control: higher = more viable cells (more ATP)
Active means: 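a knock-down is called active if GFP reaches 120% or more of non-targeting control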

{"gene knocked down":"Ctr9","reagent no.":1,"GFP, % of control":117,"viability (ATP), % of control":50.4,"call":"inactive"}
{"gene knocked down":"Ctr9","reagent no.":2,"GFP, % of control":65.7,"viability (ATP), % of control":63.6,"call":"inactive"}
{"gene knocked down":"Ctr9","reagent no.":3,"GFP, % of control":96.8,"viability (ATP), % of control":98.6,"call":"inactive"}
{"gene knocked down":"Dnali1","reagent no.":1,"GFP, % of control":68.2,"viability (ATP), % of control":110,"call":"inactive"}
{"gene knocked down":"Dnali1","reagent no.":2,"GFP, % of control":136,"viability (ATP), % of control":100,"call":"active"}
{"gene knocked down":"Rpl34","reagent no.":1,"GFP, % of control":118,"viability (ATP), % of control":74.6,"call":"inactive"}
{"gene knocked down":"Rpl34","reagent no.":2,"GFP, % of control":24.3,"viability (ATP), % of control":14.3,"call":"inactive"}
{"gene knocked down":"Rpl34","reagent no.":3,"GFP, % of control":28,"viability (ATP), % of control":22.9,"call":"inactive"}
{"gene knocked down":"Clk2","reagent no.":1,"GFP, % of control":151,"viability (ATP), % of control":113,"call":"active"}
{"gene knocked down":"Clk2","reagent no.":2,"GFP, % of control":58.4,"viability (ATP), % of control":65.3,"call":"inactive"}
{"gene knocked down":"Clk2","reagent no.":3,"GFP, % of control":104,"viability (ATP), % of control":98.6,"call":"inactive"}
{"gene knocked down":"Tsc22d4","reagent no.":1,"GFP, % of control":51.2,"viability (ATP), % of control":52.6,"call":"inactive"}
{"gene knocked down":"Tsc22d4","reagent no.":2,"GFP, % of control":72.6,"viability (ATP), % of control":79.6,"call":"inactive"}
{"gene knocked down":"Tada1","reagent no.":1,"GFP, % of control":51.1,"viability (ATP), % of control":78.4,"call":"inactive"}
{"gene knocked down":"Tada1","reagent no.":2,"GFP, % of control":215,"viability (ATP), % of control":131,"call":"active"}
{"gene knocked down":"Tada1","reagent no.":3,"GFP, % of control":59.9,"viability (ATP), % of control":96.7,"call":"inactive"}
{"gene knocked down":"Alg3","reagent no.":1,"GFP, % of control":94.1,"viability (ATP), % of control":71,"call":"inactive"}
{"gene knocked down":"Alg3","reagent no.":2,"GFP, % of control":79.5,"viability (ATP), % of control":81.3,"call":"inactive"}
{"gene knocked down":"Alg3","reagent no.":3,"GFP, % of control":101,"viability (ATP), % of control":105,"call":"inactive"}
{"gene knocked down":"Rnase6","reagent no.":1,"GFP, % of control":113,"viability (ATP), % of control":133,"call":"inactive"}
{"gene knocked down":"Rnase6","reagent no.":2,"GFP, % of control":89.2,"viability (ATP), % of control":59.2,"call":"inactive"}
{"gene knocked down":"Rnase6","reagent no.":3,"GFP, % of control":93.9,"viability (ATP), % of control":87.3,"call":"inactive"}
{"gene knocked down":"Or1d2","reagent no.":1,"GFP, % of control":24.3,"viability (ATP), % of control":21.3,"call":"inactive"}
{"gene knocked down":"Or1d2","reagent no.":2,"GFP, % of control":87.7,"viability (ATP), % of control":91.7,"call":"inactive"}
{"gene knocked down":"Or1d2","reagent no.":3,"GFP, % of control":89.5,"viability (ATP), % of control":68.3,"call":"inactive"}
{"gene knocked down":"Cmtm2b","reagent no.":1,"GFP, % of control":63.7,"viability (ATP), % of control":77.9,"call":"inactive"}
{"gene knocked down":"Cmtm2b","reagent no.":2,"GFP, % of control":128,"viability (ATP), % of control":79.9,"call":"active"}
{"gene knocked down":"Cmtm2b","reagent no.":3,"GFP, % of control":77.6,"viability (ATP), % of control":103,"call":"inactive"}
{"gene knocked down":"Klk4","reagent no.":1,"GFP, % of control":80.2,"viability (ATP), % of control":71.4,"call":"inactive"}
{"gene knocked down":"Klk4","reagent no.":2,"GFP, % of control":90.7,"viability (ATP), % of control":54.7,"call":"inactive"}
{"gene knocked down":"Klk4","reagent no.":3,"GFP, % of control":61.7,"viability (ATP), % of control":61.7,"call":"inactive"}
{"gene knocked down":"Or4a73","reagent no.":1,"GFP, % of control":119,"viability (ATP), % of control":100,"call":"inactive"}
{"gene knocked down":"Or4a73","reagent no.":2,"GFP, % of control":138,"viability (ATP), % of control":78.2,"call":"active"}
{"gene knocked down":"Or4a73","reagent no.":3,"GFP, % of control":70.2,"viability (ATP), % of control":90.7,"call":"inactive"}
{"gene knocked down":"Rnft2","reagent no.":1,"GFP, % of control":72.7,"viability (ATP), % of control":48,"call":"inactive"}
{"gene knocked down":"Rnft2","reagent no.":2,"GFP, % of control":61,"viability (ATP), % of control":63,"call":"inactive"}
{"gene knocked down":"Rnft2","reagent no.":3,"GFP, % of control":47.9,"viability (ATP), % of control":46.4,"call":"inactive"}
{"gene knocked down":"Mustn1","reagent no.":1,"GFP, % of control":59.4,"viability (ATP), % of control":46.8,"call":"inactive"}
{"gene knocked down":"Mustn1","reagent no.":2,"GFP, % of control":70,"viability (ATP), % of control":63.4,"call":"inactive"}
{"gene knocked down":"Mustn1","reagent no.":3,"GFP, % of control":55,"viability (ATP), % of control":61.9,"call":"inactive"}
